According to PubChem BioAssay AID328 (DTP/NCI, 2004):
The list is a part of this screen's results and no random one: its compounds were picked by chemical class. Other doses and runs of a compound may be missing. T/C gives the treated animals as a percentage of the vehicle group. For survival time, the PubChem record calls one and a half times the control and up active, and a quarter to a half above the control has no call in these data; cut-offs in other NCI protocols can differ. Some T/C values are marked as having no survivor count here; that says nothing about deaths at the dose. Schedule codes are those of the source, taken here to give the interval after Q, in days (D) or hours (H), and the number of doses after X. Some entries were tested several times; the results are listed from low to high.

Tested on: BDF1 mice, P388 leukemia ip, median survival T/C
Assay: NCI In Vivo Anticancer Drug Screen. Data for tumor model P388 Leukemia (intraperitoneal) in B6D2F1 (BDF1) mice
Conditions: T/C endpoint: median survival time, higher T/C = longer survival
Procedure, shortened: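 Compound-treated tumour-bearing mice were compared with vehicle-treated controls. Survival was recorded, and the value is the treated-group measurement divided by the control-group measurement (T/C).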

O=C(O)COc1cccc(N(CCCl)CCCl)c1
T/C (dose: 1.1 mg/kg/injection, schedule: Q01DX009 (ip), vehicle: Klucel (hydroxypropylcellulose) (HPC)): 90 % of control [survivor count not shown]
T/C (dose: 1.7 mg/kg/injection, schedule: Q01DX009 (ip), vehicle: Klucel (hydroxypropylcellulose) (HPC)): 103 % of control [survivor count not shown]
T/C (dose: 2.6 mg/kg/injection, schedule: Q01DX009 (ip), vehicle: Klucel (hydroxypropylcellulose) (HPC)): 111 % of control [survivor count not shown]
T/C (dose: 14.0 mg/kg/injection, schedule: Q01DX009 (ip), vehicle: Klucel (hydroxypropylcellulose) (HPC)): 141 % of control [survivor count not shown]
T/C (dose: 19.0 mg/kg/injection, schedule: Q04DX003 (ip), vehicle: Klucel (hydroxypropylcellulose) (HPC)): 120 % of control [survivor count not shown]
T/C (dose: 21.0 mg/kg/injection, schedule: Q01DX009 (ip), vehicle: Klucel (hydroxypropylcellulose) (HPC)): 145 % of control [survivor count not shown]
T/C (dose: 29.0 mg/kg/injection, schedule: Q04DX003 (ip), vehicle: Klucel (hydroxypropylcellulose) (HPC)): 135 % of control [survivor count not shown]
T/C (dose: 33.0 mg/kg/injection, schedule: Q01DX009 (ip), vehicle: Klucel (hydroxypropylcellulose) (HPC)): 181 % of control [survivor count not shown]
T/C (dose: 45.0 mg/kg/injection, schedule: Q04DX003 (ip), vehicle: Klucel (hydroxypropylcellulose) (HPC)): 142 % of control [survivor count not shown]
T/C (dose: 65.0 mg/kg/injection, schedule: Q04DX003 (ip), vehicle: Klucel (hydroxypropylcellulose) (HPC)): 157 % of control [survivor count not shown]
T/C (dose: 66.0 mg/kg/injection, schedule: Q01DX009 (ip), vehicle: Klucel (hydroxypropylcellulose) (HPC)): 213 % of control [survivor count not shown]
T/C (dose: 132.0 mg/kg/injection, schedule: Q01DX009 (ip), vehicle: Klucel (hydroxypropylcellulose) (HPC)): 127 % of control [survivor count not shown]
T/C (dose: 132.0 mg/kg/injection, schedule: Q04DX003 (ip), vehicle: Klucel (hydroxypropylcellulose) (HPC)): 95 [survivor count not shown], 209 [survivor count not shown], 271 % of control [survivor count not shown]
T/C (dose: 300.0 mg/kg/injection, schedule: Q04DX003 (ip), vehicle: Klucel (hydroxypropylcellulose) (HPC)): 86 % of control [survivor count not shown]

O=C(O)CCOc1ccccc1N(CCCl)CCCl
T/C (dose: 6.25 mg/kg/injection, schedule: Q01DX009 (ip), vehicle: saline with Tween-80): 145 % of control [survivor count not shown]
T/C (dose: 8.0 mg/kg/injection, schedule: Q01DX009 (ip), vehicle: saline): 157 % of control [survivor count not shown]
T/C (dose: 12.0 mg/kg/injection, schedule: Q01DX009 (ip), vehicle: saline): 146 % of control [survivor count not shown]
T/C (dose: 12.5 mg/kg/injection, schedule: Q01DX009 (ip), vehicle: saline with Tween-80): 181 % of control [survivor count not shown]
T/C (dose: 18.0 mg/kg/injection, schedule: Q01DX009 (ip), vehicle: saline): 150 % of control [survivor count not shown]
T/C (dose: 25.0 mg/kg/injection, schedule: Q01DX009 (ip), vehicle: saline with Tween-80): 177 % of control [survivor count not shown]

O=C(O)CCOc1cccc(N(CCCl)CCCl)c1
T/C (dose: 4.8 mg/kg/injection, schedule: Q01DX009 (ip), vehicle: Klucel (hydroxypropylcellulose) (HPC)): 86 % of control [survivor count not shown]
T/C (dose: 7.2 mg/kg/injection, schedule: Q01DX009 (ip), vehicle: Klucel (hydroxypropylcellulose) (HPC)): 100 % of control [survivor count not shown]
T/C (dose: 11.0 mg/kg/injection, schedule: Q01DX009 (ip), vehicle: Klucel (hydroxypropylcellulose) (HPC)): 144 % of control [survivor count not shown]
T/C (dose: 11.0 mg/kg/injection, schedule: Q04DX003 (ip), vehicle: Klucel (hydroxypropylcellulose) (HPC)): 116 % of control [survivor count not shown]
T/C (dose: 16.0 mg/kg/injection, schedule: Q01DX009 (ip), vehicle: Klucel (hydroxypropylcellulose) (HPC)): 200 % of control [survivor count not shown]
T/C (dose: 16.0 mg/kg/injection, schedule: Q04DX003 (ip), vehicle: Klucel (hydroxypropylcellulose) (HPC)): 91 % of control [survivor count not shown]
T/C (dose: 25.0 mg/kg/injection, schedule: Q01DX009 (ip), vehicle: Klucel (hydroxypropylcellulose) (HPC)): 190 % of control [survivor count not shown]
T/C (dose: 33.0 mg/kg/injection, schedule: Q04DX003 (ip), vehicle: Klucel (hydroxypropylcellulose) (HPC)): 140 [survivor count not shown] and 185 % of control [survivor count not shown]
T/C (dose: 50.0 mg/kg/injection, schedule: Q01DX009 (ip), vehicle: Klucel (hydroxypropylcellulose) (HPC)): 230 % of control [survivor count not shown]
T/C (dose: 50.0 mg/kg/injection, schedule: Q04DX003 (ip), vehicle: Klucel (hydroxypropylcellulose) (HPC)): 150 [survivor count not shown] and 220 % of control [survivor count not shown]
T/C (dose: 75.0 mg/kg/injection, schedule: Q04DX003 (ip), vehicle: Klucel (hydroxypropylcellulose) (HPC)): 90 [survivor count not shown] and 240 % of control [survivor count not shown]

COc1cc(CN(CCCl)CCCl)cc(OC)c1OC
T/C (dose: 0.31 mg/kg/injection, schedule: Q04DX003 (ip), vehicle: saline): 104 % of control [survivor count not shown]
T/C (dose: 0.62 mg/kg/injection, schedule: Q01DX009 (ip), vehicle: saline): 128 % of control [survivor count not shown]
T/C (dose: 0.62 mg/kg/injection, schedule: Q04DX003 (ip), vehicle: saline): 90 % of control [survivor count not shown]
T/C (dose: 1.25 mg/kg/injection, schedule: Q01DX009 (ip), vehicle: saline): 152 % of control [survivor count not shown]
T/C (dose: 1.25 mg/kg/injection, schedule: Q04DX003 (ip), vehicle: saline): 118 % of control [survivor count not shown]
T/C (dose: 2.5 mg/kg/injection, schedule: Q01DX009 (ip), vehicle: saline): 160 % of control [survivor count not shown]
T/C (dose: 2.5 mg/kg/injection, schedule: Q04DX003 (ip), vehicle: saline): 127 % of control [survivor count not shown]
T/C (dose: 5.0 mg/kg/injection, schedule: Q01DX009 (ip), vehicle: saline): 215 % of control [survivor count not shown]
T/C (dose: 5.0 mg/kg/injection, schedule: Q04DX003 (ip), vehicle: saline): 187 % of control [survivor count not shown]
T/C (dose: 6.7 mg/kg/injection, schedule: Q04DX003 (ip), vehicle: saline): 170 % of control [survivor count not shown]
T/C (dose: 10.0 mg/kg/injection, schedule: Q04DX003 (ip), vehicle: saline): 175 [survivor count not shown], 183 [survivor count not shown], 200 % of control [survivor count not shown]

CN(/N=C\c1ccc(N(CCCl)CCCl)cc1)C(=N)N
T/C (dose: 11.1 mg/kg/injection, schedule: Q01DX010 (ip), vehicle: carboxymethylcellulose (CMC)): 155 % of control [survivor count not shown]
T/C (dose: 11.1 mg/kg/injection, schedule: Q01DX010 (ip), vehicle: steroid suspending solution): 160 % of control [survivor count not shown]
T/C (dose: 16.6 mg/kg/injection, schedule: Q01DX010 (ip), vehicle: carboxymethylcellulose (CMC)): 160 % of control [survivor count not shown]
T/C (dose: 16.6 mg/kg/injection, schedule: Q01DX010 (ip), vehicle: steroid suspending solution): 175 % of control [survivor count not shown]
T/C (dose: 25.0 mg/kg/injection, schedule: Q01DX010 (ip), vehicle: carboxymethylcellulose (CMC)): 160 % of control [survivor count not shown]
T/C (dose: 25.0 mg/kg/injection, schedule: Q01DX010 (ip), vehicle: steroid suspending solution): 170 % of control [survivor count not shown]
T/C (dose: 37.5 mg/kg/injection, schedule: Q01DX010 (ip), vehicle: carboxymethylcellulose (CMC)): 160 % of control [survivor count not shown]
T/C (dose: 37.5 mg/kg/injection, schedule: Q01DX010 (ip), vehicle: steroid suspending solution): 150 % of control [survivor count not shown]
